These are yes or no findings as the source states them, for the method shown. Some entries that bind do so weakly or less than the wild type.
Target: AHA-1, C. elegans (orthologue of mammalian HIF-1beta/ARNT) (C. elegans) (UniProt O02219)
Assay: native gel or EMSA; HIF-1 and/or AHA-1 synthesized in reticulocyte lysate (1-4 ul) incubated singly or together with 32P-labeled ftn-1 IDE DNA probe; 10 mM Tris-HCl pH 7.5, 4% glycerol, 1 mM MgCl2, 1 mM DTT, poly dI-dC, room temperature 30 min; 5% non-denaturing polyacrylamide gel; the two proteins are seen together only as a complex on the DNA probe

Amino acid sequences for entries named in this document (tags omitted).
UniProt O02219: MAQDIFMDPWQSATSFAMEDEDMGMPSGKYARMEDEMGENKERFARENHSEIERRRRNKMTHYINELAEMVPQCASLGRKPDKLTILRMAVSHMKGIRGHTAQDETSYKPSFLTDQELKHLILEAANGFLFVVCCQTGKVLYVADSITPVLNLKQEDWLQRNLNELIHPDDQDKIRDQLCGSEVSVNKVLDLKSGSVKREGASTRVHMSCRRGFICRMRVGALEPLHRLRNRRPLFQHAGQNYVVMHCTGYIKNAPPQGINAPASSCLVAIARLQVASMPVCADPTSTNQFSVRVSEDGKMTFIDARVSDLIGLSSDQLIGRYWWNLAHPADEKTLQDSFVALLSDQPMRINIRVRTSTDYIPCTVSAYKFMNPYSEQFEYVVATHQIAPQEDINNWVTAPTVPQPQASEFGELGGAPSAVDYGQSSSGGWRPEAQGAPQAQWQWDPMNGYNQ

B1: HIF-1 (hypoxia-inducible factor-1), C. elegans (protein, UniProt G5EGD2 1-719)
chain: MEDNRKRNMERRRETSRHAARDRRSKESDIFDDLKMCVPIVEEGTVTHLDRIALLRVAATICRLRKTAGNVLENNLDNEITNEVWTEDTIAECLDGFVMIVDSDSSILYVTESVAMYLGLTQTDLTGRALRDFLHPSDYDEFDKQSKMLHKPRGEDTDTTGINMVLRMKTVISPRGRCLNLKSALYKSVSFLVHSKVSTGGHVSFMQGITIPAGQGTTNANASAMTKYTESPMGAFTTRHTCDMRITFVSDKFNYILKSELKTLMGTSFYELVHPADMMIVSKSMKELFAKGHIRTPYYRLIAANDTLAWIQTEATTITHTTKGQKGQYVICVHYVLGIQGAEESLVVCTDSMPAGMQVDIKKEVDDTRDYIGRQPEIVECVDFTPLIEPEDPFDTVIEPVVGGEEPVKQADMGARKNSYDDVLQWLFRDQPSSPPPARYRSADRFRTTEPSNFGSALASPDFMDSSSRTSRPKTSYGRRAQSQGSRTTGSSSTSASATLPHSANYSPLAEGISQCGLNSPPSIKSGQVVYGDARSMGRSCDPSDSSRRFSALSPSDTLNVSSTRGINPVIGSNDVFSTMPFADSIAIAERIDSSPTLTSGEPILCDDLQWEEPDLSCLAPFVDTYDMMQMDEGLPPELQALYDLPDFTPAVPQAPAARPVHIDRSPPAKRMHQSGPSDLDFMYTQHYQPFQQDETYWQGQQQQNEQQPSSYSPFPMLS
  binding: binds
